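Genome-wide siRNA knockdown in TC32 Ewing sarcoma cells, comparing luciferase light from an NR0B1-promoter reporter with a CMV-promoter reporter 48 hours after transfection.
Each siRNA was applied at 20 nM.
A z-score of the log NR0B1-over-CMV signal, less the median of siRNAs with the same seed; more negative means a stronger specific loss of the NR0B1 reporter.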

The strongest results of the screen are mostly left out here.
Sequences are the guide (antisense) strand, without overhang.

siRNA	target gene	seed-corrected z-score
UAACGAAAUUCUAAAAAGC	HMGN1P38	0.4895
UAUUUGACUCUCGAAGUUC	MECOM	0.06808
UUCUCGAUUUUGUCAAGCC	SPTBN1	0.4158
UCUCCACUGAGGAAAGAUC	PARP9	0.008035
UAUGUGAACAAUAGCUCUC	CD164	0.4666
UUGAUCCUCAGAUCGUUCG	NME8	-0.09787
UAGGCUAUGAAGUAGGCUG	GPR50	-0.3288
UUCCUAACAACUGGAAUUC	DIO1	0.2217
UCGUCGAUAAUCAGGAAGC	DDX51	0.7497
AGAGAUACUUGCAAUGUCC	GABRP	-0.2678
AAUACUAUCCUCUAUGUAC	LPAR3	-0.7665
UUAGGUAGAUGCUGACUCC	SLC22A6	0.9662
UGACAAACAAGGUAACAAG	GRM1	0.9031
UAAUAGUCCCAGUAAUAGG	IL36G	-0.25
AAAGUCAACACCAUCUUUC	ALDOB	0.8385
UUCAUUCUGAUAGACAUAG	AKR1B10	0.05755
AUCUUGAUAUACACUGUCC	CDC40	0.291
UUAUAGAAAACUCCAUAGC	ANO1	1.114
UUUGUGCAAAAAUUUGACG	GPR176	-0.04819
AGAUGUACACGAAACCAGC	ALG3	-0.8437
UAACUUAGUAGACUGUCAG	RGS7	-0.02292
UUGUAGGUAAUUGCGCUGC	CLEC1B	-0.01124
UAAACUCCCAAGGAAUAAG	OR5H6	0.003682
UCUUGUACAAGAUCCUGGU	C1orf109	0.8414
CACAACAUUAAUGCCUUCU	LOC256374	-0.2466
AAGUGUACAUCGGUCCUCC	IL17REL	-0.07209
UCAUAGAUACUGACUCGGC	STARD13	-0.05778
UUCGAUCUCACUGAGCGCG	RGAG4	0.3794
UCGCCGGCAAAGUAGAUGC	IL4I1	0.1772
AACGUGAGUUUUAAGGUGG	MTF1	-1.549
UUCCGUCACAUACUCAUUG	UNC13A	-0.2222
UACGAUCAAGUAAACUUGG	LSAMP	-0.3044
UGUCAAACCAGUCGGAGGC	ST3GAL2	0.6863
UCUUCAACAGCGACUCUAG	DRAP1	-0.5305
AUACUUUCCGAGGAUGUCC	ABLIM1	-0.2771
UUCGUGAUCUGAAAGGUGA	LINC00326	0.5078
UAAGUAGGCAGCGAUUUUC	GSTM3	-0.04223
AAAGCUGGUGUUUUGAUGU	YBX2	0.0608
UUCCCUGCUAUUCUUAUCG	SUGP1	-0.2956
UUCUGGUCAAUCUCAAUGC	MAP2K7	-0.0188
UCAGAUCACAUUUGUUCCC	RAB1A	0.0322
UAAGGUAUUCGCGAAAAAG	MITD1	0.3446
AUAGUCAACAGAGAGCCGC	TUBA4A	0.0192
UUACAGACUUCAGAAUGGC	KRTAP2-1	-0.443
UUCGAUCUCUCGGUGCAUG	OTOP3	-0.1527
UAGGUAGCCGGAGAUCAUG	SLCO2B1	-0.08132
UUAGUACUGAUGAUAUCAC	STAB2	-0.02596
AGAGAUGAAAUCAAGGGCC	NCAPH2	1.228
AGAAUUACAGUUGCAGUGG	PROCA1	-0.3149
UUUCCAACGACAAACAGCU	FBRSL1	0.4938
AAAGAUCUUGUGCAUUUCC	BIN3	-0.09507
UUCUGUAUGGAUGUGGGUG	FAM73A	-1.237

Repeated from the top, 4 entries:

{"sirna": "UAACGAAAUUCUAAAAAGC", "target gene": "HMGN1P38", "seed-corrected z-score": "0.4895"}
{"sirna": "UAUUUGACUCUCGAAGUUC", "target gene": "MECOM", "seed-corrected z-score": "0.06808"}
{"sirna": "UUCUCGAUUUUGUCAAGCC", "target gene": "SPTBN1", "seed-corrected z-score": "0.4158"}
{"sirna": "UCUCCACUGAGGAAAGAUC", "target gene": "PARP9", "seed-corrected z-score": "0.008035"}

Data taken from PubChem BioAssay AID1159506, deposited by NCATS (2015).